Series [1] addresses NONO endogenous (Homo sapiens (HEK293T)) (UniProt Q15233). The series is described as follows: pull-down, western blot. The settings on record: pulldown: 10 mM HEPES pH 7.0, 200 mM KCl, 1% Triton X-100, 1 mM MgCl2, 1 mM DTT, 4 C, washes to 1.6 M KCl; protein in an extract; label: 3' biotin.
Series [2] concerns the target T1, PSPC1 endogenous (Homo sapiens (HEK293T)) (UniProt Q8WXF1).
T1 sequence (looked up, limits assumed): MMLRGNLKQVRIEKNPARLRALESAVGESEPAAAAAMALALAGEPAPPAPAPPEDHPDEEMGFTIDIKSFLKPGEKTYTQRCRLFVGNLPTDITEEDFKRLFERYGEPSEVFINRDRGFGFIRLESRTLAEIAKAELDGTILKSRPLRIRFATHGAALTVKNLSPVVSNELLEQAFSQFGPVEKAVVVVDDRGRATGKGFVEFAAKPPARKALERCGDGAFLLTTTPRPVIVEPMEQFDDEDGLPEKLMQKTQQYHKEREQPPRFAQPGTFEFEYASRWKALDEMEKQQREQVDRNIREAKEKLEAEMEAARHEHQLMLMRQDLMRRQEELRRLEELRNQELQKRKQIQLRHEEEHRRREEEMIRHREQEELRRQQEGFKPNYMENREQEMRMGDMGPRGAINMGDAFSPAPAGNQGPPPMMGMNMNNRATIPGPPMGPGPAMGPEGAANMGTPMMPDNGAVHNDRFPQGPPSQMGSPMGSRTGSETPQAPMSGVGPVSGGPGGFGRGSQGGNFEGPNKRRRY
The series is described as follows: pull-down, western blot. To be noted: pulldown: 10 mM HEPES pH 7.0, 200 mM KCl, 1% Triton X-100, 1 mM MgCl2, 1 mM DTT, 4 C, washes to 1.6 M KCl; protein in an extract; label: 3' biotin. For orientation: A western blot detects proteins with antibodies after separation by electrophoresis.

Chains of the proteins cited; added tags and fusions are not shown. Lines headed by an entry give the natural chain unless they say otherwise; changes in a name come on top. Residues count along the entry.
UniProt Q15233, 53-312: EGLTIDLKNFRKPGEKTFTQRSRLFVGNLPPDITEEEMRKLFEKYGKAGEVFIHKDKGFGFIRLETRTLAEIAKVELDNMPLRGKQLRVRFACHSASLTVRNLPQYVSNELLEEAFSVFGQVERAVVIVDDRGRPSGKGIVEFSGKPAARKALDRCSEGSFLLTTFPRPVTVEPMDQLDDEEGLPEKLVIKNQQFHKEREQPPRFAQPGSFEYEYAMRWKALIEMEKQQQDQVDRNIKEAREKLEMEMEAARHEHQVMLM
UniProt P23246: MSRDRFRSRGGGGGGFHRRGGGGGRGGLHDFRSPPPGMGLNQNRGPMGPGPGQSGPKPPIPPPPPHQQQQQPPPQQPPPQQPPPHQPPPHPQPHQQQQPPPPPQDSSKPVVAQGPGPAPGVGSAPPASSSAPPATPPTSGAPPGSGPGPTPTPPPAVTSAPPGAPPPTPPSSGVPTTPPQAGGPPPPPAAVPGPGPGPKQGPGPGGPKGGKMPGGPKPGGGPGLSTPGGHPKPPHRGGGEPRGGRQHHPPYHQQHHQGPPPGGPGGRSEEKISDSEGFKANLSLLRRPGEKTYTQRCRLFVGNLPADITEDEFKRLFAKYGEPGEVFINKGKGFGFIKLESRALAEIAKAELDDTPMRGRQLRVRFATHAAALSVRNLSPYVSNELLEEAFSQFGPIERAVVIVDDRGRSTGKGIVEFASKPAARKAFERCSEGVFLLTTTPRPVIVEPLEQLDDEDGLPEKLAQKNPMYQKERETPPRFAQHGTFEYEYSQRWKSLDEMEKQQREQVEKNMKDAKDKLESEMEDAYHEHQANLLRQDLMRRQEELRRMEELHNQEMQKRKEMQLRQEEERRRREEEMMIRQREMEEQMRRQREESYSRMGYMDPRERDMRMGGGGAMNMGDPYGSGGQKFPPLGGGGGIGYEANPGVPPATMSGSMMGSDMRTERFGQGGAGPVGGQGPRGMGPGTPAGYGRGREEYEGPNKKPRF

Series [3] has as its target SFPQ endogenous (Homo sapiens (HEK293T)) (UniProt P23246). The series is described as follows: pull-down, western blot. To be noted: pulldown: 10 mM HEPES pH 7.0, 200 mM KCl, 1% Triton X-100, 1 mM MgCl2, 1 mM DTT, 4 C, washes to 1.6 M KCl; protein in an extract; label: 3' biotin.
Series [4] concerns the target hnRNP K endogenous (Homo sapiens (HEK293T)) (UniProt P61978). In words: pull-down, western blot. The settings on record: pulldown: 10 mM HEPES pH 7.0, 200 mM KCl, 1% Triton X-100, 1 mM MgCl2, 1 mM DTT, 4 C, washes to 1.6 M KCl; protein in an extract; label: 3' biotin.
The target of the next series is NONO full-length (UniProt Q15233). The series is described as follows: EMSA. The settings on record: annealed without KCl; NONO(53-312) EMSA: 20 mM HEPES pH 7.5, 5.7 mM Tris-HCl, 113 mM KCl, 10% glycerol, 62 mM L-proline, 1% EMPIGEN BB, 0.12 mM EDTA, 4 C 1 h, 10 nM RNA; commercial protein; residues 1-471; protein details: MYC/DDK; label: 3' Cy5. In general terms: A gel shift assay detects complexes by their altered migration in electrophoresis.

The target of a further series is NONO(53-312) (UniProt Q15233). The series is described as follows: EMSA. The settings on record: annealed without KCl; NONO(53-312) EMSA: 20 mM HEPES pH 7.5, 5.7 mM Tris-HCl, 113 mM KCl, 10% glycerol, 62 mM L-proline, 1% EMPIGEN BB, 0.12 mM EDTA, 4 C 1 h, 10 nM RNA; recombinant protein; residues 53-312; protein details: His tag removed by TEV; label: 3' Cy5.
Series [5] concerns the target T1, PSPC1 endogenous (Homo sapiens (HEK293T)). The series is described as follows: pull-down, TMT mass spectrometry. To be noted: pulldown: 10 mM HEPES pH 7.0, 200 mM KCl, 1% Triton X-100, 1 mM MgCl2, 1 mM DTT, 4 C, washes to 1.6 M KCl; protein in an extract; label: 3' biotin.
Series [6] addresses NONO endogenous (Homo sapiens (HEK293T)) (UniProt Q15233). In words: pull-down, TMT MS and western blot. To be noted: pulldown: 10 mM HEPES pH 7.0, 200 mM KCl, 1% Triton X-100, 1 mM MgCl2, 1 mM DTT, 4 C, washes to 1.6 M KCl; protein in an extract; label: 3' biotin.
The target in series [7] is SFPQ endogenous (Homo sapiens (HEK293T)) (UniProt P23246). The series is described as follows: pull-down, TMT MS and western blot. To be noted: pulldown: 10 mM HEPES pH 7.0, 200 mM KCl, 1% Triton X-100, 1 mM MgCl2, 1 mM DTT, 4 C, washes to 1.6 M KCl; protein in an extract; label: 3' biotin.

The exact form of at least one protein or probe is not confirmed. For some assays here: The comparison behind a weaker result is the experiment's own reference, which may not be listed here. For some assays here: Results from cells or extracts need not show a direct contact. For some assays here: At least one verdict rests on a figure or table, not on a statement of the authors. For some assays here: Tags and fusion partners may be left off the protein sequences shown. For some assays here: The direction of at least one scale is not stated here.

With “GGGGCCGGGGCCGGGGCCGGGGCC [Sense (GGGGCC)4 G-quadruplex, biotin]”, the binding result in series [1] is recorded as “binds”; in series [2], “binds”; in series [3] it was “binds”; in [4] it was “binds more weakly”.
For “GGGAGGGAGGGAGGG [NEAT1_22619 non-G-quadruplex]”, the binding result in the series with NONO full-length and with NONO(53-312) was “binds more weakly” each time.
On to GGGAGGGAGGGAGGG [NEAT1_22619, biotin], for which the binding signal (ratio over beads) in [5] came to 4.06. In addition, the binding result in series [6] and in [7] was “binds” in each case.
Turning to “GGGGCCGGGGCCGGGGCCGGGGCC [(GGGGCC)4 non-G-quadruplex]”, in the series with NONO(53-312), the binding result was “binds more weakly”.
Turning to “CCCCGGCCCCGGCCCCGGCCCCGG [Antisense (CCCCGG)4, biotin]”, the binding result in series [1] is on record as “binds more weakly”; in series [2] it was “binds more weakly”; in series [3], “binds more weakly”; in series [4] it was “binds”.
Turning to “GCGAGUGUGUGAGACGUCGC [Scrambled, biotin]”, the binding signal (ratio over beads) in series [5] was 2.2. Moreover, the binding result in [6] and in series [7] was “binds more weakly” each time.
As for “GGGAAGGGGAUGGGGAUUGUGGG [NEAT1_3226, biotin]”, in [5], the binding signal (ratio over beads) stood at 4.77. For the same sequence, the binding result in series [6] and in [7] was “binds” in each case.
On to “GGGUGCAGGGCUGCAGGAGGGCCGGGAGGG [NEAT1_425, biotin]”, for which the binding signal (ratio over beads) in [5] was found to be 4.62. For the same sequence, the binding result in [6] and in series [7] was “binds” throughout.

For the origin of these results see PMC7367201.
